Taken from: PubChem BioAssay AID1159578 (Peter MacCallum Cancer Centre, 2015)
In all, the deposit lists about 18,000 reagents; shown is a random part of them. About 1,030 of all reagents (5.7%) were called active. 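Inactive calls also include pools with fewer than 3300 nuclei, whose migration was not assessed.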 Raw values are not corrected between plates. A number with no mark means an inactive call. Further read-outs or replicates are left out here.

- Assay: 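siRNA pools altering how lymphatic endothelial cells close a scratch wound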 (primary screen)
- System: human lymphatic endothelial cells
- Reagents: siRNA pool against human genes, 40 nM
- Time to read-out: 48 h after transfection
- Read-out: 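High-content imaging of dye-stained cells in a scratch assay measures filled wound area and nuclei per well; duplicate means given as ratio to mock and robust z-score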
- Reading the numbers: migration robust z-score: higher = faster migration into the scratch; nuclei per well: higher = more cells in the well
- Hit rule: 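Pools averaging fewer than 3300 nuclei are never called; remaining pools count as changed when migration robust z lies outside -2 to 2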
- Calls: active = migration changed; inactive = no migration change, or too few cells

Silencing of GRPEL2 (GrpE like 2, mitochondrial) resulted in: migration robust z-score -0.55; migration class with cell-count check migration z between -2 and 2; enough cells; nuclei per well, duplicate mean 6412.
With knock-down of MID2 (midline 2) the results were migration robust z-score 0.96; migration class with cell-count check migration z between -2 and 2; enough cells; nuclei per well, duplicate mean 6480.
With knock-down of TMEM63A (transmembrane protein 63A), the record shows migration robust z-score 1.67; migration class with cell-count check migration z between -2 and 2; enough cells; nuclei per well, duplicate mean 5008.
With knock-down of SURF4 (surfeit 4), the screen gave migration robust z-score -1.6; migration class with cell-count check migration z between -2 and 2; enough cells; nuclei per well, duplicate mean 4931.
CFAP100 (cilia and flagella associated protein 100) gave migration robust z-score 0.88; migration class with cell-count check migration z between -2 and 2; enough cells; nuclei per well, duplicate mean 5742.
With knock-down of PRSS57 (serine protease 57) the results were migration robust z-score 1.04; migration class with cell-count check migration z between -2 and 2; enough cells; nuclei per well, duplicate mean 4291.
Knock-down of CHST9 (carbohydrate sulfotransferase 9) came out at: migration robust z-score -2.8; migration class with cell-count check under 3300 nuclei; migration not judged; nuclei per well, duplicate mean 1911.
Knock-down of ADGRL2 (adhesion G protein-coupled receptor L2) gave: migration robust z-score -0.54; migration class with cell-count check migration z between -2 and 2; enough cells; nuclei per well, duplicate mean 5560.
With knock-down of UTP4 (UTP4 small subunit processome component), the screen gave migration robust z-score -0.62; migration class with cell-count check migration z between -2 and 2; enough cells; nuclei per well, duplicate mean 6350.
ARL6IP4 (ARF like GTPase 6 interacting protein 4) showed migration robust z-score 2.39 (active); migration class with cell-count check migration z above 2; enough cells; nuclei per well, duplicate mean 6048.
After knock-down of P2RY4 (pyrimidinergic receptor P2Y4), the screen gave migration robust z-score -0.6; migration class with cell-count check migration z between -2 and 2; enough cells; nuclei per well, duplicate mean 5036.
With knock-down of LUM (lumican), the screen gave migration robust z-score -0.05; migration class with cell-count check migration z between -2 and 2; enough cells; nuclei per well, duplicate mean 5981.

A stretch of the results above, for reference:
CHST9 (carbohydrate sulfotransferase 9) | migration robust z-score: -2.8; migration class with cell-count check: under 3300 nuclei; migration not judged; nuclei per well, duplicate mean: 1911
ADGRL2 (adhesion G protein-coupled receptor L2) | migration robust z-score: -0.54; migration class with cell-count check: migration z between -2 and 2; enough cells; nuclei per well, duplicate mean: 5560
